Paper PMC3189238
No constants are given. Whether binding was seen depends on the method and setting. In cells and extracts the contact can be indirect. Some binding calls cover weakened binding; strength is not graded here. Blank lines part the entries; values can stand above or below the molecule they belong to.

Protein sequences, listed by entry. Tags and fused reporters are not part of them. Lines headed by an entry give the natural chain unless they say otherwise; changes in a name come on top.
UniProt P10909: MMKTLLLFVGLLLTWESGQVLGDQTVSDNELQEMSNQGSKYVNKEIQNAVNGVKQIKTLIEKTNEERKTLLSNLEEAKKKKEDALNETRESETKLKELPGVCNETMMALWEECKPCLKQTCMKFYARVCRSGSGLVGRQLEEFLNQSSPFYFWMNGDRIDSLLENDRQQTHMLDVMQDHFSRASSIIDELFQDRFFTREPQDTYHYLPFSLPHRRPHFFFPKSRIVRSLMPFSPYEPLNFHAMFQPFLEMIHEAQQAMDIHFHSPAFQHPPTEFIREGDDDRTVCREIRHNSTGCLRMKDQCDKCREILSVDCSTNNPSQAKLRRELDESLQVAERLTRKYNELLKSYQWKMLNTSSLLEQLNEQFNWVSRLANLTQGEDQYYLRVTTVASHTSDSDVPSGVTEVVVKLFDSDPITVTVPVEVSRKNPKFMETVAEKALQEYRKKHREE
UniProt P02730: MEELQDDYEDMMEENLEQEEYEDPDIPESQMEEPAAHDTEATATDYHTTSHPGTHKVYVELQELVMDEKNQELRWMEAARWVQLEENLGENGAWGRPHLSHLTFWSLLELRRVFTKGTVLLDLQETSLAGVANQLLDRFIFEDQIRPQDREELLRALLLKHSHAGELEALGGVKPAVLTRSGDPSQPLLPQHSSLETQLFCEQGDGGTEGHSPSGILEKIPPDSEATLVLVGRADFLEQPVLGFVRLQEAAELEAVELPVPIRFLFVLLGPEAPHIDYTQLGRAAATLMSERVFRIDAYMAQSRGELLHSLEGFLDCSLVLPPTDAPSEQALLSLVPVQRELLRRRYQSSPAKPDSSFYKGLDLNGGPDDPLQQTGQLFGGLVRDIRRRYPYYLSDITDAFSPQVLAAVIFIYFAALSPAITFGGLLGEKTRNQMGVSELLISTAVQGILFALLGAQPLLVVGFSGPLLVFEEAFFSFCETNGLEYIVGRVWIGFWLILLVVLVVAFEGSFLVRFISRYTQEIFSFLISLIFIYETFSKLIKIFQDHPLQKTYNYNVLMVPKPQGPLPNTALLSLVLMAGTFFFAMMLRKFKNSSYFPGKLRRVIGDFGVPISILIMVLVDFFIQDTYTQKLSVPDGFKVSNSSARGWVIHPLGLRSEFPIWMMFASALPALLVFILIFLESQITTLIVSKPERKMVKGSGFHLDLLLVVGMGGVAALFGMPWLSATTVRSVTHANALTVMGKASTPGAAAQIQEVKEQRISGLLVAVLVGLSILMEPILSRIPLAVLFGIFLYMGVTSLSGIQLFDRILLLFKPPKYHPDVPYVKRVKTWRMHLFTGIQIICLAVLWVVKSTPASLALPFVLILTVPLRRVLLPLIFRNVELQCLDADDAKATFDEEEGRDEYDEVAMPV

Tests used:
Assay in all cases: co-IP; purified RBC membranes of healthy subjects (1 mg protein) lysed in NP-40 buffer (50 mM Tris-HCl pH 8.0, 150 mM NaCl, 1% NP-40); antibodies against sCLU, Band 3, stomatin or normal serum, 2 h at 4°C, Protein-G Sepharose; immunoblot under reducing conditions
[1] = target: Secretory Apolipoprotein J/Clusterin (human (endogenous in RBCs)) (UniProt P10909)
[2] = target: Band 3 (human (endogenous in RBCs)) (UniProt P02730)
[3] = target: T1, stomatin (human (endogenous in RBCs)) (UniProt P27105)
T1 sequence: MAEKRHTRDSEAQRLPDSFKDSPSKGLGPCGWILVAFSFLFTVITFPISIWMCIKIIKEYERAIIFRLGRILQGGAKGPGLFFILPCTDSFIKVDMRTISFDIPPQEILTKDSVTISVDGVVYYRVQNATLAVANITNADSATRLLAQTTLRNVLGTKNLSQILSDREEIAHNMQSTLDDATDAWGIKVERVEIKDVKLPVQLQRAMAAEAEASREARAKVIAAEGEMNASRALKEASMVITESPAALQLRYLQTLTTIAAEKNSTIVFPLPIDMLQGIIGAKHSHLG

- binding [1]: binds
Molecule: Band 3 (from UniProt P02730 1-911)

- binding [2]: binds
- binding [3]: no binding
Molecule: Secretory Apolipoprotein J/Clusterin (from UniProt P10909-1 23-227; P10909-1 228-449)

- binding [1]: binds
B1: CD59 (protein, UniProt P13987 26-102)
chain: LQCYNCPNPTADCKTAVNCSSDFDACLITKAGLQVYNKCWKFEHCNFNDVTTRLRENELTYYCCKKDLCNFNEQLEN
